These results are taken from the supplement of paper PMC4604168 (melanoma cell lines).

The other results are listed elsewhere or left out. Many values rest on one well or one pass, so single values are uncertain.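 The apoptosis fraction was the count of cleaved-PARP antibody-stained nuclei relative to all DNA-stained nuclei, imaged in 1,536-well plates. Screening doses were set so most cells survived, and baseline and induced cleaved-PARP levels vary greatly across cell lines.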

This experiment has as its system A375. The experiment can be described thus: cleaved PARP positive nuclei fraction relative to DMSO control; melanoma cells; higher = more apoptosis. The note with it: library dose: low library concentration; 72 h.
As for `CN(c1ncccc1CNc1nc(Nc2ccc3c(c2)CC(=O)N3)ncc1C(F)(F)F)S(C)(=O)=O` + CCCS(=O)(=O)Nc1ccc(F)c(C(=O)c2c[nH]c3ncc(Cl)cc23)c1F [PLX4720] (first compound 0.08 µM, partner dose 0.08 µM), the “cleaved PARP positive nuclei fraction” value was 217%. Under `CCCCCCCCc1ccc(CCC(N)(CO)CO)cc1` [fingolimod] + Nc1nc(F)nc2c1ncn2[C@@H]1O[C@H](CO)[C@@H](O)[C@@H]1O [fludarabine] (first compound 2 µM, partner dose 0.2 µM) stands 1960%; under `CCCCCCCCc1ccc(CCC(N)(CO)CO)cc1` [fingolimod] + CC(=O)c1c(C)c2cnc(Nc3ccc(N4CCNCC4)cn3)nc2n(C2CCCC2)c1=O [palbociclib] (first compound 2 µM, partner dose 0.04 µM), 494%; under `CC(=O)O[C@@]12CO[C@@H]1C[C@H](O)[C@@]1(C)C(=O)[C@H](O)C3=C(C)[C@@H](OC(=O)[C@H](O)[C@@H](NC(=O)OC(C)(C)C)c4ccccc4)C[C@@](O)([C@@H](OC(=O)c4ccccc4)[C@H]21)C3(C)C` [Docetaxel] + Cc1cc(Nc2cc(N3CCN(C)CC3)nc(/C=C/c3ccccc3)n2)n[nH]1 [ENMD2076] (first compound 0.0001 µM, partner dose 0.04 µM), 2490%. For `CC1(C)CCC(c2ccc(Cl)cc2)=C(CN2CCN(c3ccc(C(=O)NS(=O)(=O)c4ccc(N[C@H](CCN5CCOCC5)CSc5ccccc5)c(S(=O)(=O)C(F)(F)F)c4)cc3)CC2)C1` + CCCS(=O)(=O)Nc1ccc(F)c(C(=O)c2c[nH]c3ncc(Cl)cc23)c1F [PLX4720] (first compound 0.4 µM, partner dose 0.08 µM), the “cleaved PARP positive nuclei fraction” value is 1290%. Take `CC(=O)O[C@@]12CO[C@@H]1C[C@H](O)[C@@]1(C)C(=O)[C@H](O)C3=C(C)[C@@H](OC(=O)[C@H](O)[C@@H](NC(=O)OC(C)(C)C)c4ccccc4)C[C@@](O)([C@@H](OC(=O)c4ccccc4)[C@H]21)C3(C)C` [Docetaxel] + Cn1c(Nc2ccc(C(F)(F)F)cc2)nc2cc(Oc3ccnc(-c4ncc(C(F)(F)F)[nH]4)c3)ccc21 [CHIR265] (first compound 0.0001 µM, partner dose 0.08 µM): the “cleaved PARP positive nuclei fraction” value was determined as 2140%.

In the case of `Cn1sc(=O)n(Cc2ccccc2)c1=O` + CC(C)C[C@H](NC(=O)[C@H](Cc1ccccc1)NC(=O)c1cnccn1)B(O)O [Bortezomib] (first compound 0.4 µM, partner dose 0.001 µM), the “cleaved PARP positive nuclei fraction” value is 147%. As for `COc1ccc(C2=N[C@@H](c3ccc(Cl)cc3)[C@@H](c3ccc(Cl)cc3)N2C(=O)N2CCNC(=O)C2)c(OC(C)C)c1` [Nutlin-3] + C=CCNC1=C2C[C@@H](C)C[C@H](OC)[C@H](O)[C@@H](C)/C=C(\C)[C@H](OC(N)=O)[C@@H](OC)/C=C\C=C(/C)C(=O)NC(=CC1=O)C2=O [Tanespimycin] (first compound 0.1 µM, partner dose 0.002 µM), the figure is 170%; as for `C[C@@H](N)c1ccc(C(=O)Nc2ccnc3[nH]ccc23)cc1` + CC(C)C[C@H](NC(=O)[C@H](Cc1ccccc1)NC(=O)c1cnccn1)B(O)O [Bortezomib] (first compound 0.4 µM, partner dose 0.001 µM), 54%. Take `C[C@]1(O)C[C@@H](c2nc(-c3ccc4ccc(-c5ccccc5)nc4c3)c3c(N)nccn32)C1` + CS(=O)(=O)CCNCc1ccc(-c2ccc3ncnc(Nc4ccc(OCc5cccc(F)c5)c(Cl)c4)c3c2)o1 [lapatinib] (first compound 0.4 µM, partner dose 0.8 µM): the “cleaved PARP positive nuclei fraction” value came out at 153%.

For `Cn1sc(=O)n(Cc2ccccc2)c1=O` + CNC(=O)c1cc(Oc2ccc(NC(=O)Nc3ccc(Cl)c(C(F)(F)F)c3)cc2)ccn1 [sorafenib] (first compound 0.4 µM, partner dose 0.4 µM), the “cleaved PARP positive nuclei fraction” value was found to be 130%. With `CN(c1ncccc1CNc1nc(Nc2ccc3c(c2)CC(=O)N3)ncc1C(F)(F)F)S(C)(=O)=O` + CS(=O)(=O)CCNCc1ccc(-c2ccc3ncnc(Nc4ccc(OCc5cccc(F)c5)c(Cl)c4)c3c2)o1 [lapatinib] (first compound 0.08 µM, partner dose 0.8 µM), the “cleaved PARP positive nuclei fraction” value was 340%. Under `CCCCCCCCc1ccc(CCC(N)(CO)CO)cc1` [fingolimod] + CC(=O)O[C@@]12CO[C@@H]1C[C@H](O)[C@@]1(C)C(=O)[C@H](O)C3=C(C)[C@@H](OC(=O)[C@H](O)[C@@H](NC(=O)OC(C)(C)C)c4ccccc4)C[C@@](O)([C@@H](OC(=O)c4ccccc4)[C@H]21)C3(C)C [Docetaxel] (first compound 2 µM, partner dose 0.0001 µM) stands 1060%; under `CCCCCCCCc1ccc(CCC(N)(CO)CO)cc1` [fingolimod] + COCC[n+]1c2c(n(Cc3cnccn3)c1C)C(=O)c1ccccc1C2=O [YM155] (first compound 2 µM, partner dose 0.0004 µM), 963%.

For the compound `NC1(c2ccc(-c3nc4ccn5c(=O)[nH]nc5c4cc3-c3ccccc3)cc2)CCC1` + C[C@@H](Oc1cc(-c2cnn(C3CCNCC3)c2)cnc1N)c1c(Cl)ccc(F)c1Cl [Crizotinib] (first compound 0.4 µM, partner dose 0.2 µM), the “cleaved PARP positive nuclei fraction” value amounted to 89.7%. Under `C[C@]1(O)C[C@@H](c2nc(-c3ccc4ccc(-c5ccccc5)nc4c3)c3c(N)nccn32)C1` + Cc1cc(Nc2cc(N3CCN(C)CC3)nc(/C=C/c3ccccc3)n2)n[nH]1 [ENMD2076] (first compound 0.4 µM, partner dose 0.04 µM) stands 469%; under `Cn1sc(=O)n(Cc2ccccc2)c1=O` + C[C@@H](Oc1cc(-c2cnn(C3CCNCC3)c2)cnc1N)c1c(Cl)ccc(F)c1Cl [Crizotinib] (first compound 0.4 µM, partner dose 0.2 µM), 38.8%; under `NC(=O)c1ccc(N(C(N)=O)c2c(F)cccc2F)nc1-c1ccc(F)cc1F` + CCCCCCCCc1ccc(CCC(N)(CO)CO)cc1 [fingolimod] (first compound 0.4 µM, partner dose 2 µM), 468%.

`NC1(c2ccc(-c3nc4ccn5c(=O)[nH]nc5c4cc3-c3ccccc3)cc2)CCC1` + CO[C@H]1C[C@@H]2CC[C@@H](C)[C@@](O)(O2)C(=O)C(=O)N2CCCC[C@H]2C(=O)O[C@H]([C@H](C)C[C@@H]2CC[C@@H](OCCO)[C@H](OC)C2)CC(=O)[C@H](C)/C=C(\C)[C@@H](O)[C@@H](OC)C(=O)[C@H](C)C[C@H](C)/C=C/C=C/C=C/1C [everolimus] (first compound 0.4 µM, partner dose 0.02 µM): the “cleaved PARP positive nuclei fraction” value came to 733%.
